# Results reported in the supplement of paper PMC8728848.
# This is one part of the list.
# B1: CcfD (Bacteroides vulgatus), A6KYX8 (protein)
# chain: MKYKNYFKSIIYLALGAFTLGSCEDFLDRQEDEKLTFDKIWESRNTTQQYWLNAMSFLPNENGSLQGDTEPYLGASDECTIAYDRQYRWINFGTWNPSQVPYYKMDHYYKGIRECNIFLQNVYKCSDPLVTKDQLDEWYWQTRFARAYYYFLMMRDYGPVFLLGDDLLDFTASTEELYRPRNTWDQCVNYVVSEMTQCAESGVVLQQSDLPAAKWGLATVGTCHAVISRLLLYSARPLFNGNKLYSTVKNPDAPDFPELSGVKLFPELDNTKWQKAAEAAKKLIDNPCYELYRAGNDNPYEDYYGVTHETWNKELIWTDRYNGLFSWGVGTVPTGVAGTAYGAVGPTQALVDAYAMNTGWYPITGYEADGTPIVEPLSGYELASELEKSSWIYPSGGWSNKADFEIEAPNMYKDREPRFYVTVFFGGNQWLHGNSATSISFAKGGNGNKSHDYPKSGYLCNRFYDHKLNSSEGQWGNITFPVFRLGEIYLNFIEAVLECKKNGVALDPSYEALAMEKWADLRKRAGLDPITSIYGQVSTEELIQLCRKERQIELAFERHRYFDTRTWMIATQTDNGKMYGMNTSCPLDAGMKGTETPDGFWERTAFETRVFQNKHYLYPFSQRELDRNKLLTQNYGW
# Assays:
# Experiment in all cases: glycan array binding signal (z-score within array); higher = stronger binding
# Conditions in all cases: glycan notation: IUPAC condensed, linker removed
# [1] = target: Fuc(a1-2)[GalNAc(b1-3)]Gal
# Summary of the method: (§1)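 Glycan array binding is given as a within-array Z-score, which can be read as non-binding when negative. The arrays, 3228 of them, came from the Consortium for Functional Glycomics database and were retained only where the protein sequence was available. Z-scores were averaged across arrays of the same protein sequence at different concentrations or buffers and across linkers.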
# Fuc(a1-3)GlcNAc = target: Fuc(a1-3)GlcNAc
# Summary of the method: as §1
# [2] = target: Fuc(a1-3)[Gal(b1-4)]Glc6S
# Summary of the method: as §1
# [3] = target: Fuc(a1-3)[Gal(b1-4)]GlcNAc
# Summary of the method: as §1
# [4] = target: Fuc(a1-3)[Gal(b1-4)]GlcNAc(b1-2)Man
# Summary of the method: as §1
# [5] = target: Fuc(a1-3)[Gal(b1-4)]GlcNAc(b1-2)Man(a1-3)[Fuc(a1-3)[Gal(b1-4)]GlcNAc(b1-2)Man(a1-6)]Man(b1-4)GlcNAc(b1-4)GlcNAc
# Summary of the method: as §1
# [6] = target: Fuc(a1-3)[Gal(b1-4)]GlcNAc(b1-2)Man(a1-3)[Fuc(a1-3)[Gal(b1-4)]GlcNAc(b1-2)Man(a1-6)]Man(b1-4)GlcNAc(b1-4)[Fuc(a1-6)]GlcNAc
# Summary of the method: as §1
# [7] = target: Fuc(a1-3)[Gal(b1-4)]GlcNAc(b1-3)Gal(b1-3)[Fuc(a1-4)]GlcNAc
# Summary of the method: as §1
# [8] = target: Fuc(a1-3)[Gal(b1-4)]GlcNAc(b1-3)Gal(b1-4)[Fuc(a1-3)]GlcNAc
# Summary of the method: as §1
# [9] = target: Fuc(a1-3)[Gal(b1-4)]GlcNAc(b1-3)Gal(b1-4)[Fuc(a1-3)]GlcNAc(b1-3)Gal(b1-4)[Fuc(a1-3)]GlcNAc
# Summary of the method: as §1
# [10] = target: Fuc(a1-3)[Gal(b1-4)]GlcNAc(b1-3)GalNAc
# Summary of the method: as §1
# [11] = target: Fuc(a1-3)[Gal(b1-4)]GlcNAc(b1-6)GalNAc
# Summary of the method: as §1
# [12] = target: Fuc(a1-3)[Gal(b1-4)]GlcNAc(b1-6)[Gal(b1-3)GlcNAc(b1-3)]Gal(b1-4)Glc
# Summary of the method: as §1
# [13] = target: Fuc(a1-3)[Gal(b1-4)]GlcNAc6S
# Summary of the method: as §1
# [14] = target: Fuc(a1-3)[Gal3S(b1-4)]Glc
# Summary of the method: as §1
# [15] = target: Fuc(a1-3)[Gal3S(b1-4)]GlcNAc
# Summary of the method: as §1
# [16] = target: Fuc(a1-3)[Gal3S(b1-4)]GlcNAc6S
# Summary of the method: as §1
# [17] = target: Fuc(a1-3)[GalNAc(b1-4)]GlcNAc
# Summary of the method: as §1
# [18] = target: Fuc(a1-3)[GalNAc(b1-4)]GlcNAc6S
# Summary of the method: as §1
# Fuc(a1-4)GlcNAc = target: Fuc(a1-4)GlcNAc
# Summary of the method: as §1
# Fuc(b1-3)GlcNAc = target: Fuc(b1-3)GlcNAc
# Summary of the method: as §1
# Gal(a1-2)Gal = target: Gal(a1-2)Gal
# Summary of the method: as §1
# Gal(a1-3)Gal = target: Gal(a1-3)Gal
# Summary of the method: as §1
# Gal(a1-3)Gal(b1-3)GlcNAc = target: Gal(a1-3)Gal(b1-3)GlcNAc
# Summary of the method: as §1
# [19] = target: Gal(a1-3)Gal(b1-3)GlcNAc(b1-2)Man
# Summary of the method: as §1
# [20] = target: Gal(a1-3)Gal(b1-3)GlcNAc(b1-2)Man(a1-3)[Gal(a1-3)Gal(b1-3)GlcNAc(b1-2)Man(a1-6)]Man(b1-4)GlcNAc(b1-4)GlcNAc
# Summary of the method: as §1
# [21] = target: Gal(a1-3)Gal(b1-3)GlcNAc(b1-3)GalNAc
# Summary of the method: as §1
# [22] = target: Gal(a1-3)Gal(b1-3)GlcNAc(b1-6)GalNAc
# Summary of the method: as §1
# [23] = target: Gal(a1-3)Gal(b1-3)[Fuc(a1-4)]GlcNAc(b1-2)Man(a1-3)[Gal(a1-3)Gal(b1-3)[Fuc(a1-4)]GlcNAc(b1-2)Man(a1-6)]Man(b1-4)GlcNAc(b1-4)GlcNAc
# Summary of the method: as §1
# Gal(a1-3)Gal(b1-4)Glc = target: Gal(a1-3)Gal(b1-4)Glc
# Summary of the method: as §1
# Gal(a1-3)Gal(b1-4)GlcNAc = target: Gal(a1-3)Gal(b1-4)GlcNAc
# Summary of the method: as §1
# [24] = target: Gal(a1-3)Gal(b1-4)GlcNAc(b1-2)Man
# Summary of the method: as §1
# [25] = target: Gal(a1-3)Gal(b1-4)GlcNAc(b1-2)Man(a1-3)[Gal(a1-3)Gal(b1-4)GlcNAc(b1-2)Man(a1-6)]Man(b1-4)GlcNAc(b1-4)GlcNAc
# Summary of the method: as §1
# [26] = target: Gal(a1-3)Gal(b1-4)GlcNAc(b1-3)GalNAc
# Summary of the method: as §1
# [27] = target: Gal(a1-3)Gal(b1-4)GlcNAc(b1-6)GalNAc
# Summary of the method: as §1
# [28] = target: Gal(a1-3)Gal(b1-4)[Fuc(a1-3)]GlcNAc
# Summary of the method: as §1
# [29] = target: Gal(a1-3)Gal(b1-4)[Fuc(a1-3)]GlcNAc(b1-2)Man(a1-3)[Gal(a1-3)Gal(b1-4)[Fuc(a1-3)]GlcNAc(b1-2)Man(a1-6)]Man(b1-4)GlcNAc(b1-4)GlcNAc
# Summary of the method: as §1
# Gal(a1-3)GalNAc = target: Gal(a1-3)GalNAc
# Summary of the method: as §1
# [30] = target: Gal(a1-3)[Gal(a1-4)]Gal(b1-4)GlcNAc
# Summary of the method: as §1
# [31] = target: Gal(a1-4)Gal(b1-3)GlcNAc(b1-2)Man(a1-3)[Gal(a1-4)Gal(b1-3)GlcNAc(b1-2)Man(a1-6)]Man(b1-4)GlcNAc(b1-4)GlcNAc
# Summary of the method: as §1
# Gal(a1-4)Gal(b1-4)Glc = target: Gal(a1-4)Gal(b1-4)Glc
# Summary of the method: as §1
# Gal(a1-4)Gal(b1-4)GlcNAc = target: Gal(a1-4)Gal(b1-4)GlcNAc
# Summary of the method: as §1
# [32] = target: Gal(a1-4)Gal(b1-4)GlcNAc(b1-2)Man(a1-3)[Gal(a1-4)Gal(b1-4)GlcNAc(b1-2)Man(a1-6)]Man(b1-4)GlcNAc(b1-4)GlcNAc
# Summary of the method: as §1
# [33] = target: Gal(a1-4)Gal(b1-4)GlcNAc(b1-3)Gal(b1-4)Glc
# Summary of the method: as §1
# Gal(a1-4)GlcNAc = target: Gal(a1-4)GlcNAc
# Summary of the method: as §1
# Gal(a1-6)Glc = target: Gal(a1-6)Glc
# Summary of the method: as §1
# Gal(b1-2)Gal = target: Gal(b1-2)Gal
# Summary of the method: as §1
# Gal(b1-3)Gal = target: Gal(b1-3)Gal
# Summary of the method: as §1
# Gal(b1-3)Gal(b1-4)GlcNAc = target: Gal(b1-3)Gal(b1-4)GlcNAc
# Summary of the method: as §1
# Gal(b1-3)GalNAc = target: Gal(b1-3)GalNAc
# Summary of the method: as §1
# [34] = target: Gal(b1-3)GalNAc(a1-3)[Fuc(a1-2)]Gal(b1-4)Glc
# Summary of the method: as §1
# [35] = target: Gal(b1-3)GalNAc(a1-3)[Fuc(a1-2)]Gal(b1-4)GlcNAc
# Summary of the method: as §1
# Gal(b1-3)GalNAc(b1-3)Gal = target: Gal(b1-3)GalNAc(b1-3)Gal
# Summary of the method: as §1
# [36] = target: Gal(b1-3)GalNAc(b1-3)Gal(a1-4)Gal(b1-4)Glc
# Summary of the method: as §1
# [37] = target: Gal(b1-3)GalNAc(b1-4)Gal(b1-4)Glc
# Summary of the method: as §1
# [38] = target: Gal(b1-3)GalNAc(b1-4)[Neu5Ac(a2-3)]Gal(b1-4)Glc
# Summary of the method: as §1
# Gal(b1-3)GlcNAc = target: Gal(b1-3)GlcNAc
# Summary of the method: as §1
# [39] = target: Gal(b1-3)GlcNAc(a1-3)Gal(b1-4)GlcNAc
# Summary of the method: as §1
# [40] = target: Gal(b1-3)GlcNAc(a1-6)Gal(b1-4)GlcNAc
# Summary of the method: as §1
# Gal(b1-3)GlcNAc(b1-2)Man = target: Gal(b1-3)GlcNAc(b1-2)Man
# Summary of the method: as §1
binder,measurement,setting,value
B1,glycan array binding signal (z-score),[1],-0.028
same,glycan array binding signal (z-score),Fuc(a1-3)GlcNAc,0.42
same,glycan array binding signal (z-score),[2],-0.261
same,glycan array binding signal (z-score),[3],2.11
same,glycan array binding signal (z-score),[4],-0.49
same,glycan array binding signal (z-score),[5],0.262
same,glycan array binding signal (z-score),[6],0.018
same,glycan array binding signal (z-score),[7],-0.902
same,glycan array binding signal (z-score),[8],0.465
same,glycan array binding signal (z-score),[9],-0.617
same,glycan array binding signal (z-score),[10],-0.541
same,glycan array binding signal (z-score),[11],0.328
same,glycan array binding signal (z-score),[12],-0.592
same,glycan array binding signal (z-score),[13],0.811
same,glycan array binding signal (z-score),[14],-0.429
same,glycan array binding signal (z-score),[15],-0.581
same,glycan array binding signal (z-score),[16],0.282
same,glycan array binding signal (z-score),[17],0.724
same,glycan array binding signal (z-score),[18],-0.581
same,glycan array binding signal (z-score),Fuc(a1-4)GlcNAc,0.359
same,glycan array binding signal (z-score),Fuc(b1-3)GlcNAc,0.318
same,glycan array binding signal (z-score),Gal(a1-2)Gal,-0.251
same,glycan array binding signal (z-score),Gal(a1-3)Gal,0.343
same,glycan array binding signal (z-score),Gal(a1-3)Gal(b1-3)GlcNAc,-0.393
same,glycan array binding signal (z-score),[19],-1.04
same,glycan array binding signal (z-score),[20],-0.058
same,glycan array binding signal (z-score),[21],0.745
same,glycan array binding signal (z-score),[22],-0.866
same,glycan array binding signal (z-score),[23],-0.653
same,glycan array binding signal (z-score),Gal(a1-3)Gal(b1-4)Glc,0.011
same,glycan array binding signal (z-score),Gal(a1-3)Gal(b1-4)GlcNAc,-0.068
same,glycan array binding signal (z-score),[24],-0.419
same,glycan array binding signal (z-score),[25],1.19
same,glycan array binding signal (z-score),[26],-0.419
same,glycan array binding signal (z-score),[27],1.08
same,glycan array binding signal (z-score),[28],0.14
same,glycan array binding signal (z-score),[29],-0.119
same,glycan array binding signal (z-score),Gal(a1-3)GalNAc,-0.633
same,glycan array binding signal (z-score),[30],-0.81
same,glycan array binding signal (z-score),[31],-0.866
same,glycan array binding signal (z-score),Gal(a1-4)Gal(b1-4)Glc,0.425
same,glycan array binding signal (z-score),Gal(a1-4)Gal(b1-4)GlcNAc,-0.477
same,glycan array binding signal (z-score),[32],0.973
same,glycan array binding signal (z-score),[33],-0.795
same,glycan array binding signal (z-score),Gal(a1-4)GlcNAc,0.008
same,glycan array binding signal (z-score),Gal(a1-6)Glc,0.166
same,glycan array binding signal (z-score),Gal(b1-2)Gal,-0.155
same,glycan array binding signal (z-score),Gal(b1-3)Gal,0.044
same,glycan array binding signal (z-score),Gal(b1-3)Gal(b1-4)GlcNAc,-0.78
same,glycan array binding signal (z-score),Gal(b1-3)GalNAc,0.472
same,glycan array binding signal (z-score),[34],-0.937
same,glycan array binding signal (z-score),[35],-0.343
same,glycan array binding signal (z-score),Gal(b1-3)GalNAc(b1-3)Gal,-0.358
same,glycan array binding signal (z-score),[36],-0.627
same,glycan array binding signal (z-score),[37],-0.043
same,glycan array binding signal (z-score),[38],-0.317
same,glycan array binding signal (z-score),Gal(b1-3)GlcNAc,0.249
same,glycan array binding signal (z-score),[39],0.567
same,glycan array binding signal (z-score),[40],-0.724
same,glycan array binding signal (z-score),Gal(b1-3)GlcNAc(b1-2)Man,0.455

# 4 neighbouring records already listed, quoted:
binder,measurement,setting,value
B1,glycan array binding signal (z-score),[16],0.282
same,glycan array binding signal (z-score),[17],0.724
same,glycan array binding signal (z-score),[18],-0.581
same,glycan array binding signal (z-score),Fuc(a1-4)GlcNAc,0.359
